These are yes or no findings as the source states them, for the method shown. Binding seen in cells or lysates may run through a third protein. A result given as binding can be weak or reduced; the word gives no strength. Where a sequence is shown, tags or fusion partners need not be part of it.
Molecular target: MsParA (Ms6939), endogenous in M. smegmatis (M. smegmatis (endogenous in M. smegmatis)) (UniProt A0R7J4)
Test: co-IP

Chains of the proteins cited; added tags and fusions are not shown. Lines headed by an entry give the natural chain unless they say otherwise; changes in a name come on top.
UniProt A0R7J4: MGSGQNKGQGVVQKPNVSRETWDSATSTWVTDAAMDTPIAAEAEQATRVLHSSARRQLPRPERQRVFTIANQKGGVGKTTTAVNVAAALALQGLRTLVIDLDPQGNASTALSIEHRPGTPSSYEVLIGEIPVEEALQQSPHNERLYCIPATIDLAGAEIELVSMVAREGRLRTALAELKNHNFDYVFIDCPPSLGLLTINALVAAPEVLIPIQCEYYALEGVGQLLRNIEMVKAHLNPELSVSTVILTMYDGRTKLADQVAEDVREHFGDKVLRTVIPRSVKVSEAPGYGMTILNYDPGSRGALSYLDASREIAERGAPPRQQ

B1: MtTAG (Rv1210) expressed in M. smegmatis (enzyme, UniProt L7N613 1-204)
chain: MSGDGLVRCPWAEVRPGPDAQLYRDYHDNEWGRPLYGRVALFERMSLEAFQSGLSWLIILRKRENFRRAFSGFDIDKIARYTDTDVRRLLADDGIVRNRAKIEATIANARAAADLGSSEDLSELLWSFAPPPRPRPVDGSEIPSVSTESKAMSRELKRRGFRFVGPTTAYALMQATGMVDDHIQACWVPTERPFDQPGCPMAAR
binding: binds
